Source: doi:10.1371/journal.pone.0140310, primary screening data, rounded.

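Human melanoma cells were exposed to a pair of drugs for 72 h in 1,536-well plates and read by automated microscopy after fixing and staining. Values are the share of nuclei positive for cleaved PARP as a percentage of the same share in the DMSO control: 100 is the control level, higher means more apoptosis. Concentrations were fixed for each drug; these are the higher of two levels. These are primary screening values without error estimates. Basal and induced levels differ widely between cell lines.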
An unselected part of the screen is shown.
An entry leaves out what has no value listed here.

Compounds and concentrations:
FH535 (5000 nM): Cc1cc([N+](=O)[O-])ccc1NS(=O)(=O)c1cc(Cl)ccc1Cl
ABT-263 (2000 nM): CC1(C)CCC(c2ccc(Cl)cc2)=C(CN2CCN(c3ccc(C(=O)NS(=O)(=O)c4ccc(N[C@H](CCN5CCOCC5)CSc5ccccc5)c(S(=O)(=O)C(F)(F)F)c4)cc3)CC2)C1
NVP-TAE684 (400 nM): COc1cc(N2CCC(N3CCN(C)CC3)CC2)ccc1Nc1ncc(Cl)c(Nc2ccccc2S(=O)(=O)C(C)C)n1
OSI-906 (2000 nM): C[C@]1(O)C[C@@H](c2nc(-c3ccc4ccc(-c5ccccc5)nc4c3)c3c(N)nccn32)C1
AZD7762 (100 nM): NC(=O)Nc1cc(-c2cccc(F)c2)sc1C(=O)N[C@H]1CCCNC1
SNS-032 (50 nM): CC(C)(C)c1cnc(CSc2cnc(NC(=O)C3CCNCC3)s2)o1
dorsomorphin (2000 nM): c1cc(-c2cnn3cc(-c4ccc(OCCN5CCCCC5)cc4)cnc23)ccn1

- OSI-906 + SNS-032 | LOX IMVI: 147; MZ2-MEL: 189; COLO 829: 181; WM1716: 156
- FH535 + AZD7762 | LOX IMVI: 67.3; MZ2-MEL: 826; COLO 829: 160; 501mel: 365; WM1716: 182
- OSI-906 + dorsomorphin | LOX IMVI: 91.8; MZ2-MEL: 176; COLO 829: 143; 501mel: 155; WM1716: 144
- ABT-263 + dorsomorphin | LOX IMVI: 83.9; MZ2-MEL: 413; COLO 829: 138; 501mel: 174; WM1716: 433
- SNS-032 + dorsomorphin | LOX IMVI: 20.4; MZ2-MEL: 920; COLO 829: 133; 501mel: 1550; WM1716: 440
- SNS-032 + AZD7762 | LOX IMVI: 76.8; MZ2-MEL: 136; COLO 829: 110; WM1716: 226
- OSI-906 + AZD7762 | LOX IMVI: 20.0; MZ2-MEL: 99.7; COLO 829: 131; WM1716: 131
- NVP-TAE684 + dorsomorphin | LOX IMVI: 60.1; MZ2-MEL: 181; COLO 829: 194; 501mel: 104; WM1716: 103
- ABT-263 + OSI-906 | LOX IMVI: 129; MZ2-MEL: 198; COLO 829: 101; WM1716: 1760
- AZD7762 + NVP-TAE684 | LOX IMVI: 65.6; MZ2-MEL: 111; COLO 829: 203; 501mel: 253; WM1716: 270
- OSI-906 + FH535 | LOX IMVI: 195; MZ2-MEL: 183; COLO 829: 195; 501mel: 130; WM1716: 142
- FH535 + ABT-263 | LOX IMVI: 137; MZ2-MEL: 775; COLO 829: 247; 501mel: 208; WM1716: 1970
- SNS-032 + ABT-263 | LOX IMVI: 83.0; MZ2-MEL: 631; COLO 829: 102; WM1716: 3350
- ABT-263 + AZD7762 | LOX IMVI: 357; MZ2-MEL: 226; COLO 829: 117; WM1716: 5470
- NVP-TAE684 + ABT-263 | LOX IMVI: 198; MZ2-MEL: 230; COLO 829: 113; 501mel: 209; WM1716: 4600
- NVP-TAE684 + OSI-906 | LOX IMVI: 166; MZ2-MEL: 83.6; COLO 829: 77.2; 501mel: 168; WM1716: 201
- SNS-032 + FH535 | LOX IMVI: 109; MZ2-MEL: 120; COLO 829: 219; 501mel: 80.5; WM1716: 19.1
- dorsomorphin + AZD7762 | LOX IMVI: 65.0; MZ2-MEL: 79.0; COLO 829: 131; 501mel: 193; WM1716: 126
- NVP-TAE684 + FH535 | LOX IMVI: 116; MZ2-MEL: 738; COLO 829: 52.9; 501mel: 62.6; WM1716: 2630
- dorsomorphin + FH535 | LOX IMVI: 87.4; MZ2-MEL: 257; COLO 829: 141; 501mel: 203; WM1716: 184
- SNS-032 + NVP-TAE684 | LOX IMVI: 143; MZ2-MEL: 230; COLO 829: 141; 501mel: 134; WM1716: 138

Once more, the final 2:

Drugs,LOX IMVI,MZ2-MEL,COLO 829,501mel,WM1716
dorsomorphin + FH535,87.4,257,141,203,184
SNS-032 + NVP-TAE684,143,230,141,134,138